From ChEMBL document CHEMBL3988442, “University of Dundee, Small-Polar-MMV Screening Library” (2021).

Protein sequences, listed by entry. Tags and fused reporters are not part of them.
UniProt P9WNZ1, whole entry: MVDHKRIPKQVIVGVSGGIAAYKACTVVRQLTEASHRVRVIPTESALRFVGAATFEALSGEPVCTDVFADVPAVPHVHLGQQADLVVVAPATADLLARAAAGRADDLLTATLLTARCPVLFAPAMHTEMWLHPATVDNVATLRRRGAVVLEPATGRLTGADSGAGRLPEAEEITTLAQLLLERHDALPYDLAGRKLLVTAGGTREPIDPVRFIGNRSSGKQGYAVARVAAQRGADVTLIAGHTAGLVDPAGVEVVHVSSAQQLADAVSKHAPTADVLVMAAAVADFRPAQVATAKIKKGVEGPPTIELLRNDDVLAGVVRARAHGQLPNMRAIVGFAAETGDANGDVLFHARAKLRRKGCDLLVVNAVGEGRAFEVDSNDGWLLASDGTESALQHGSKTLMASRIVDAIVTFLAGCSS
UniProt P9WFT3, whole entry: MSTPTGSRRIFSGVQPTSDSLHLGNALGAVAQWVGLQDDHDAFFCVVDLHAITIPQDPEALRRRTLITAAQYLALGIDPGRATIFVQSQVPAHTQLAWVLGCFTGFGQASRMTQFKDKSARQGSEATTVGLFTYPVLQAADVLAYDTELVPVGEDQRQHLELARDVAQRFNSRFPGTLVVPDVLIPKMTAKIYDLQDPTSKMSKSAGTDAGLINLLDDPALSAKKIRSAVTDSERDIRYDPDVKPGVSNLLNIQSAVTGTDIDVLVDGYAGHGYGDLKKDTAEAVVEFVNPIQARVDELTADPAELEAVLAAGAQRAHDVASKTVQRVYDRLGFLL

Values are the deposited “Percent Effect”, in %. The controls that fix the scale are not given in the record; negative values are as filed. Compounds were drawn at random from those tested, without regard to their results. A dash means the value is not listed here; it may have been measured.

CoaBC: 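Enzyme assay of CoaBC with a phosphate dye (Biomol Green) read at 650 nm. Target: Coenzyme A biosynthesis protein CoaBC, Mycobacterium tuberculosis (UniProt P9WNZ1). Tested at 30 µM. Direction is inferred from only a few compounds that gave an IC50; most scored high, so higher reads as stronger inhibition. Most strong results did not repeat in a second test. Of about 67,000 compounds tested this way, about 40 (0.06%) reached 50% or more in at least one test.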
MtTrpRS: 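Tryptophan-tRNA ligase, Mycobacterium tuberculosis (UniProt P9WFT3). Enzyme assay of tryptophanyl-tRNA synthetase; the read-out is not stated. Tested at 10 µM. Direction is not recorded; retested compounds ran higher, which suggests that high means inhibition. About 65,000 compounds were tested under these conditions; 0.098% (about 64) showed 50% or more at least once.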

compound | CoaBC | MtTrpRS
COc1cc([C@@H]2N[C@H](c3nccs3)Cc3ccsc32)cc(OC)c1OC | -5.179 | -7.124
CCS(=O)(=O)NC1CCCN(c2cc(C)ccc2F)C1=O (configuration not stated) | 9.524 | -3.177
Cc1ncc(S(=O)(=O)Nc2ccnn2C2CCCCC2)[nH]1 | 6.695 | 2.687
CCCn1cnnc1CNC(=O)C1COc2cc(OC)ccc2C1 (configuration not stated) | - | 13.83
CCn1cc(CN2CCCCC2CCn2ccnc2C)cc1C#N (configuration not stated) | 1.285 | -2.506
N#Cc1cccc(C(=O)N2CCc3ncc(Cn4cccn4)n3CC2)c1 | 1.904 | -4.092
Cc1nc2ccccc2c(=O)n1CCC(=O)N1CCSCC1 | 1.064 | -1.415
O=C1CCC(=O)c2oc3ccc(Br)cc3c2N1 | 2.296 | 0.5092
Cc1nc(CCNc2nc(N(C)C)nc3c2CCCC3)cc(=O)[nH]1 | - | -2.786
Cn1cc(N2C(=O)CC[C@@H]3[C@H]2CCN3Cc2cccc(C#N)c2)cn1 | 8.508 | 1.684
CC(Cn1cccn1)NC(=O)NCc1ccc(C(N)=O)cc1 (configuration not stated) | 0.7833 | -1.003
Cc1csc2ncc(-c3ccnc(N4CCN(C)CC4)n3)c(=O)n12 | 4.563 | -2.956
CC(C)NC(=O)N1CCCC(c2nnc(CN3CCOCC3)n2C)C1 (configuration not stated) | 7.143 | -4.374
CC(C)c1csc(C2CCCN(C(=O)c3ccc(=O)n(C)n3)C2)n1 (configuration not stated) | -3.965 | 2.012
Cc1cc(NC(=O)N2CCN(c3cccs3)CC2)ccc1C(N)=O | 3.317 | -7.635
CCN(CC)CCc1nc2c([nH]1)CC(c1ccc(Cl)cc1)CNC2=O (configuration not stated) | -14.11 | -3.638
CN(C)C(=O)CN1CCC(c2c(C(N)=O)sc3ncccc23)C1 (configuration not stated) | 0.4843 | -2.415
O=S(=O)(NCCN1CC=CC1)c1cncc(Cl)c1 | - | 5.16
COc1ccc(C2SCC(=O)Nc3ccsc32)cc1OC (configuration not stated) | -1.499 | -3.82
NC(=O)CN1CC2(CCC1=O)CCN(Cc1cc(F)cc(F)c1)CC2 | 5.656 | -2.183
Oc1ccc(Br)c(CNc2cccc(-c3nnc[nH]3)c2)c1 | -0.9732 | 4.72
c1cc(-c2cn3nccc3nc2C2CCCCC2)nc(N2CCCC2)n1 | 7.108 | -
Cc1ccc(F)c(OC2(C(=O)O)CCN(C(=O)N3CCCC3)CC2)c1 | -6.751 | -6.445
CCOc1ccc(SCCS(=O)(=O)CC)cc1 | 2.694 | 9.419
CN(CCC#N)C(=O)CCOc1cccc(F)c1 | -5.803 | -3.496
COC(=O)C1CN(CC(=O)Nc2ccccc2Cl)c2ccccc21 (configuration not stated) | 4.989 | 3.186
O=C(CN(Cc1cccs1)C1CCS(=O)(=O)C1)NCCc1cccs1 (configuration not stated) | - | -0.1009
COCCO[C@H]1COCCN(Cc2ccc(OC)cc2)C1 | -44.99 | 9.535
COc1cccc(-n2cc(CN(C)Cc3ccnc(C(C)C)n3)cn2)c1 | -4.531 | -3.785
c1ccc(-n2cc(CN3CCCC(Cn4cncn4)C3)nn2)cc1 (configuration not stated) | 3.655 | -0.09747
CC(C)N1CCCC1c1cc(C(F)(F)F)[nH]n1 (configuration not stated) | -1.314 | -6.634
COCc1cnc2n1CCN(C(=O)c1cn(C)c3ccccc13)C2C (configuration not stated) | -0.1238 | -
Cn1ccnc1C(=O)N[C@@H]1CN(Cc2cccs2)[C@@H]2CCCO[C@@H]21 | 7.818 | 2.441
CN1C[C@@H](F)[C@@H](OCc2nc3ccc(C#N)cc3[nH]2)C1 | 8.804 | 1.28
Cn1cc(N2CC3(CCN(C(=O)c4cccn4C)CC3)OCC2=O)cn1 | 4.25 | 2.815
CC(=O)NCCNC(=O)CN1CCCC1Cn1nc(C)nc1C (configuration not stated) | 1.646 | 1.224
COc1ccc(S(=O)(=O)N2C[C@H](OC)[C@]3(CCCO3)C2)cc1 | 7.692 | 6.167
CCn1cc(S(=O)(=O)N2CCCCCC2c2cc(C)no2)cn1 (configuration not stated) | -8.01 | -1.621
Cc1nc(-c2ccncc2)ncc1C(C)NC(=O)Cn1ccccc1=O (configuration not stated) | 10.61 | 7.568
Cc1cc(C)cc(-c2ccc(CC3(C(=O)O)CCOCC3)cc2)c1 | -0.5556 | 2.258
O=C(NCC1CC1)C1CCC2(CCN(C(=O)c3ccncc3)CC2)O1 (configuration not stated) | 2.118 | 10.12
CC(Cn1cncn1)NC1CCN(Cc2cccc(O)c2)CC1 (configuration not stated) | -3.599 | 5.093
Cc1nc2cc(C(=O)N3CCCC(n4cncn4)C3)ccc2n1C (configuration not stated) | -0.6745 | 1.652
Cc1cnn(CC(C)NCc2cccnc2)c1 (configuration not stated) | 3.484 | -0.5415
OCc1cn(Cc2cccc(C(F)(F)F)c2)nn1 | -3.682 | -8.006
Cc1cc(N2CCCC2c2cc(Nc3cnccn3)nc(C)n2)ncn1 (configuration not stated) | 5.081 | -
Cc1nc[nH]c1CN(Cc1ccccc1)Cc1nccs1 | 3.465 | 0.2075
COCC(=O)N1C[C@@H]2COC[C@]2(COC)C1 | 1.844 | -3.294
CN(CC(=O)NC(C)(C)C)C(=O)c1cccn1CCc1ccccc1 | -5.446 | -2.697
CN(Cc1ccco1)[C@@H]1CN(Cc2nccs2)C[C@@H]2CCCO[C@@H]21 | -2.521 | -3.313
N#Cc1cccc(S(=O)(=O)N2CCCCC2CCN2CCCC2)c1 (configuration not stated) | 6.3 | 3.239
Cc1cc(C2CCCN(C(=O)COc3ccc(F)cc3F)C2)n[nH]1 (configuration not stated) | 0.9724 | -1.312
Cc1cc(C)n(CCN2CCN(C(=O)c3cc4ccccc4o3)CC2)n1 | -5.285 | 2.204
COCCN1CCN(Cc2cnc(C)nc2)CC1 | -0.9732 | -0.5217
CC(=O)N(C)CC(=O)NC(CC(C)C)c1cccs1 (configuration not stated) | 4.348 | -0.4817
Cc1ccc(-n2cc(CN3CCN(C)[C@@H]4CS(=O)(=O)C[C@@H]43)cn2)cc1 | 7.253 | 6.289
Cc1cc(C(=O)N2C[C@@H]3OCCN(CCN4CCCC4)[C@@H]3C2)c(C)o1 | 1.5 | 1.564
CCc1ccc(-c2noc(Cn3nc(C(N)=O)ccc3=O)n2)cc1 | -5.951 | 2.922
CC(C)Oc1cccc(C(=O)C2CCCN(C(=O)c3cncs3)C2)c1 (configuration not stated) | 11.58 | -1.319

The first 6 entries again:

| compound | CoaBC | MtTrpRS |
|---|---|---|
| `COc1cc([C@@H]2N[C@H](c3nccs3)Cc3ccsc32)cc(OC)c1OC` | -5.179 | -7.124 |
| `CCS(=O)(=O)NC1CCCN(c2cc(C)ccc2F)C1=O` (configuration not stated) | 9.524 | -3.177 |
| `Cc1ncc(S(=O)(=O)Nc2ccnn2C2CCCCC2)[nH]1` | 6.695 | 2.687 |
| `CCCn1cnnc1CNC(=O)C1COc2cc(OC)ccc2C1` (configuration not stated) | - | 13.83 |
| `CCn1cc(CN2CCCCC2CCn2ccnc2C)cc1C#N` (configuration not stated) | 1.285 | -2.506 |
| `N#Cc1cccc(C(=O)N2CCc3ncc(Cn4cccn4)n3CC2)c1` | 1.904 | -4.092 |